Article PMC11554305, “Functional identification of soluble uric acid as an endogenous inhibitor of CD38” (eLife, 2024)

Experiment: Tissue sUA levels in WT mice
Assay type: in vivo, mouse
Conditions: 1-day treatment of saline

SMILES: O=c1[nH]c(=O)c2[nH]c(=O)[nH]c2[nH]1 [sUA, uric acid]
- Tissue sUA (Brain): 9.8 µmol/kg
- Tissue sUA (Heart): 25.2 µmol/kg
- Tissue sUA (Ileum): 226.2 µmol/kg
- Tissue sUA (Kidney): 26.0 µmol/kg
- Tissue sUA (Liver): 233.4 µmol/kg
- Tissue sUA (Lung): 364.6 µmol/kg
- Tissue sUA (Skeletal Muscle): 19.1 µmol/kg
- Tissue sUA (Spleen): 83.3 µmol/kg
